Results are given in words; binding and its absence hold for the method and conditions named. Some results given as binding are weak or reduced against the parent protein; the word gives no strength.
Target: mouse serum albumin (mouse), P07724
Experiment: SPR (Biacore 3000), albumin on CM5 chip, one concentration, koff ranking
Settings: remark: other sources report otherwise

binding: binds
B1: PMP6G7 (VHH)
VHH: QVQLVESGGGLVQPGGSLRLSCAASGFTFSNYWMYWVRVAPGKGLERISRDISTGGGYSYYADSVKGRFTISRDNAKNTLYLQMNSLKPEDTALYYCAKDREAQVDTLDFDYRGQGTQVTVSS
